# This is one part of the list.
# What was measured:
# Experiment in all cases: glycan array binding signal (z-score within array); higher = stronger binding
# Details in all cases: glycan notation: IUPAC condensed, linker removed
# [1] = molecular target: GlcNAc(b1-3)Gal(b1-4)GlcNAc(b1-3)Gal(b1-4)GlcNAc(b1-2)Man(a1-3)[GlcNAc(b1-3)Gal(b1-4)GlcNAc(b1-3)Gal(b1-4)GlcNAc(b1-2)Man(a1-6)]Man(b1-4)GlcNAc(b1-4)[Fuc(a1-6)]GlcNAc
# Method in brief: (§1)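 The binding signal is a Z-score computed within each array. Data were drawn from 3228 arrays in the Consortium for Functional Glycomics database, restricted to those with a known protein sequence. Scores were averaged over arrays of the same protein sequence at different concentrations or buffers, and over linkers, and negative values can be taken as non-binding.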
# [2] = molecular target: GlcNAc(b1-3)Gal(b1-4)GlcNAc(b1-3)Gal(b1-4)GlcNAc(b1-2)[GlcNAc(b1-3)Gal(b1-4)GlcNAc(b1-3)Gal(b1-4)GlcNAc(b1-6)]Man(a1-6)[GlcNAc(b1-3)Gal(b1-4)GlcNAc(b1-3)Gal(b1-4)GlcNAc(b1-2)Man(a1-3)]Man(b1-4)GlcNAc(b1-4)[Fuc(a1-6)]GlcNAc
# Method in brief: as §1
# [3] = molecular target: GlcNAc(b1-3)Gal(b1-4)GlcNAc(b1-3)Gal(b1-4)GlcNAc(b1-3)Gal(b1-4)GlcNAc(b1-2)Man(a1-3)[GlcNAc(b1-3)Gal(b1-4)GlcNAc(b1-3)Gal(b1-4)GlcNAc(b1-3)Gal(b1-4)GlcNAc(b1-2)Man(a1-6)]Man(b1-4)GlcNAc(b1-4)GlcNAc
# Method in brief: as §1
# [4] = molecular target: GlcNAc(b1-3)Gal(b1-4)GlcNAc(b1-3)Gal(b1-4)GlcNAc(b1-3)Gal(b1-4)GlcNAc(b1-2)Man(a1-3)[GlcNAc(b1-3)Gal(b1-4)GlcNAc(b1-3)Gal(b1-4)GlcNAc(b1-3)Gal(b1-4)GlcNAc(b1-2)Man(a1-6)]Man(b1-4)GlcNAc(b1-4)[Fuc(a1-6)]GlcNAc
# Method in brief: as §1
# [5] = molecular target: GlcNAc(b1-3)Gal(b1-4)GlcNAc(b1-3)Gal(b1-4)GlcNAc(b1-3)Gal(b1-4)GlcNAc(b1-2)[GlcNAc(b1-3)Gal(b1-4)GlcNAc(b1-3)Gal(b1-4)GlcNAc(b1-3)Gal(b1-4)GlcNAc(b1-6)]Man(a1-6)[GlcNAc(b1-3)Gal(b1-4)GlcNAc(b1-3)Gal(b1-4)GlcNAc(b1-3)Gal(b1-4)GlcNAc(b1-2)Man(a1-3)]Man(b1-4)GlcNAc(b1-4)[Fuc(a1-6)]GlcNAc
# Method in brief: as §1
# [6] = molecular target: GlcNAc(b1-3)Gal(b1-4)GlcNAc(b1-3)Gal(b1-4)GlcNAc(b1-3)Gal(b1-4)GlcNAc(b1-3)Gal(b1-4)GlcNAc(b1-2)Man(a1-3)[GlcNAc(b1-3)Gal(b1-4)GlcNAc(b1-3)Gal(b1-4)GlcNAc(b1-3)Gal(b1-4)GlcNAc(b1-3)Gal(b1-4)GlcNAc(b1-2)Man(a1-6)]Man(b1-4)GlcNAc(b1-4)GlcNAc
# Method in brief: as §1
# [7] = molecular target: GlcNAc(b1-3)Gal(b1-4)GlcNAc(b1-3)Gal(b1-4)GlcNAc(b1-3)Gal(b1-4)GlcNAc(b1-3)Gal(b1-4)GlcNAc(b1-2)Man(a1-3)[GlcNAc(b1-3)Gal(b1-4)GlcNAc(b1-3)Gal(b1-4)GlcNAc(b1-3)Gal(b1-4)GlcNAc(b1-3)Gal(b1-4)GlcNAc(b1-2)Man(a1-6)]Man(b1-4)GlcNAc(b1-4)[Fuc(a1-6)]GlcNAc
# Method in brief: as §1
# [8] = molecular target: GlcNAc(b1-3)Gal(b1-4)GlcNAc(b1-3)Gal(b1-4)GlcNAc(b1-3)Gal(b1-4)GlcNAc(b1-3)Gal(b1-4)GlcNAc(b1-2)[GlcNAc(b1-3)Gal(b1-4)GlcNAc(b1-3)Gal(b1-4)GlcNAc(b1-3)Gal(b1-4)GlcNAc(b1-3)Gal(b1-4)GlcNAc(b1-6)]Man(a1-6)[GlcNAc(b1-3)Gal(b1-4)GlcNAc(b1-3)Gal(b1-4)GlcNAc(b1-3)Gal(b1-4)GlcNAc(b1-3)Gal(b1-4)GlcNAc(b1-2)Man(a1-3)]Man(b1-4)GlcNAc(b1-4)[Fuc(a1-6)]GlcNAc
# Method in brief: as §1
# [9] = molecular target: GlcNAc(b1-3)Gal(b1-4)GlcNAc(b1-3)Gal(b1-4)GlcNAc(b1-3)GalNAc
# Method in brief: as §1
# [10] = molecular target: GlcNAc(b1-3)Gal(b1-4)GlcNAc(b1-3)GalNAc
# Method in brief: as §1
# [11] = molecular target: GlcNAc(b1-3)Gal(b1-4)GlcNAc(b1-3)[GlcNAc(b1-3)Gal(b1-4)GlcNAc(b1-3)]GalNAc
# Method in brief: as §1
# [12] = molecular target: GlcNAc(b1-3)Gal(b1-4)GlcNAc(b1-6)[Gal(b1-3)]GalNAc
# Method in brief: as §1
# [13] = molecular target: GlcNAc(b1-3)Gal(b1-4)GlcNAc(b1-6)[GlcNAc(b1-3)Gal(b1-3)]GalNAc
# Method in brief: as §1
# [14] = molecular target: GlcNAc(b1-3)Gal(b1-4)GlcNAc(b1-6)[GlcNAc(b1-3)]Gal(b1-4)GlcNAc
# Method in brief: as §1
# GlcNAc(b1-3)GalNAc = molecular target: GlcNAc(b1-3)GalNAc
# Method in brief: as §1
# GlcNAc(b1-3)Man = molecular target: GlcNAc(b1-3)Man
# Method in brief: as §1
# [15] = molecular target: GlcNAc(b1-3)[GlcNAc(b1-4)][GlcNAc(b1-6)]GlcNAc
# Method in brief: as §1
# [16] = molecular target: GlcNAc(b1-3)[GlcNAc(b1-6)]Gal(b1-4)GlcNAc
# Method in brief: as §1
# [17] = molecular target: GlcNAc(b1-3)[GlcNAc(b1-6)]GalNAc
# Method in brief: as §1
# [18] = molecular target: GlcNAc(b1-4)Gal(b1-4)GlcNAc
# Method in brief: as §1
# GlcNAc(b1-4)GlcNAc = molecular target: GlcNAc(b1-4)GlcNAc
# Method in brief: as §1
# [19] = molecular target: GlcNAc(b1-4)GlcNAc(b1-4)GlcNAc
# Method in brief: as §1
# [20] = molecular target: GlcNAc(b1-4)GlcNAc(b1-4)GlcNAc(b1-4)GlcNAc(b1-4)GlcNAc
# Method in brief: as §1
# [21] = molecular target: GlcNAc(b1-4)GlcNAc(b1-4)GlcNAc(b1-4)GlcNAc(b1-4)GlcNAc(b1-4)GlcNAc
# Method in brief: as §1
# [22] = molecular target: GlcNAc(b1-4)[GlcNAc(b1-6)]GalNAc
# Method in brief: as §1
# [23] = molecular target: GlcNAc(b1-6)Gal(b1-4)GlcNAc
# Method in brief: as §1
# GlcNAc(b1-6)GalNAc = molecular target: GlcNAc(b1-6)GalNAc
# Method in brief: as §1
# [24] = molecular target: GlcNAc6S(b1-3)Gal(b1-4)GlcNAc
# Method in brief: as §1
# Kdn(a2-3)Gal(b1-3)GalNAc = molecular target: Kdn(a2-3)Gal(b1-3)GalNAc
# Method in brief: as §1
# Kdn(a2-3)Gal(b1-3)GlcNAc = molecular target: Kdn(a2-3)Gal(b1-3)GlcNAc
# Method in brief: as §1
# Kdn(a2-3)Gal(b1-4)Glc = molecular target: Kdn(a2-3)Gal(b1-4)Glc
# Method in brief: as §1
# Kdn(a2-3)Gal(b1-4)GlcNAc = molecular target: Kdn(a2-3)Gal(b1-4)GlcNAc
# Method in brief: as §1
# [25] = molecular target: Kdn(a2-3)Gal(b1-4)[Fuc(a1-3)]GlcNAc
# Method in brief: as §1
# Kdn(a2-6)Gal(b1-4)GlcNAc = molecular target: Kdn(a2-6)Gal(b1-4)GlcNAc
# Method in brief: as §1
# [26] = molecular target: Man(a1-2)Man(a1-2)Man(a1-3)Man
# Method in brief: as §1
# [27] = molecular target: Man(a1-2)Man(a1-2)Man(a1-6)[Man(a1-3)]Man
# Method in brief: as §1
# Man(a1-2)Man(a1-3)Man = molecular target: Man(a1-2)Man(a1-3)Man
# Method in brief: as §1
# [28] = molecular target: Man(a1-2)Man(a1-3)[Man(a1-2)Man(a1-6)]Man
# Method in brief: as §1
binder,measurement,setting,value
B3GalT2 (Rattus norvegicus) (protein) LMLQWRRRHCCFAKMSWNAKRSLFRTHLMGVLSLVFLFAMFLFFNHHDWLPGRPGFKENPVTYTFRGFRSTKTETNQSSLRNIWKEVVPQTLRPQTATNSNNTELSPQGVTGLENTLSANGSIYNEKGTGHPNSYHFKYIINEPEKCQEKSPFLILLIAAEPGQIEARRAIRQTWGNETLAPGIQITRIFLLGISIKLNGYLQHAIQEESIQYHDIIQQEYLDTYYNLTIKTLMGMNWVATYCPHTPYVMKTDSDMFVNTEYLIHKLLKPDLPPRHNYFTGYLMRGYAPNRNKDSKWYMPPDLYPSERYPVFCSGTGYVFSGDLAEKIFKVSLGIRRLHLEDVYVGICLAKLRVDPVPPPNEFVFNHWRVSYSSCKYSHLITSHQFQPSELIKYWNHLQQNKHNACVNAAKEKAGRYRHRKLH,glycan array binding signal (z-score),[1],0.705
same,glycan array binding signal (z-score),[2],-0.891
same,glycan array binding signal (z-score),[3],-0.641
same,glycan array binding signal (z-score),[4],0.041
same,glycan array binding signal (z-score),[5],-1.03
same,glycan array binding signal (z-score),[6],0.448
same,glycan array binding signal (z-score),[7],0.499
same,glycan array binding signal (z-score),[8],-1.04
same,glycan array binding signal (z-score),[9],-1.03
same,glycan array binding signal (z-score),[10],0.966
same,glycan array binding signal (z-score),[11],-1.1
same,glycan array binding signal (z-score),[12],-0.371
same,glycan array binding signal (z-score),[13],-0.96
same,glycan array binding signal (z-score),[14],-0.836
same,glycan array binding signal (z-score),GlcNAc(b1-3)GalNAc,0.005
same,glycan array binding signal (z-score),GlcNAc(b1-3)Man,-0.341
same,glycan array binding signal (z-score),[15],-0.219
same,glycan array binding signal (z-score),[16],-0.284
same,glycan array binding signal (z-score),[17],0.347
same,glycan array binding signal (z-score),[18],-0.559
same,glycan array binding signal (z-score),GlcNAc(b1-4)GlcNAc,-0.423
same,glycan array binding signal (z-score),[19],-0.516
same,glycan array binding signal (z-score),[20],-0.992
same,glycan array binding signal (z-score),[21],-0.344
same,glycan array binding signal (z-score),[22],0.98
same,glycan array binding signal (z-score),[23],1.2
same,glycan array binding signal (z-score),GlcNAc(b1-6)GalNAc,0.289
same,glycan array binding signal (z-score),[24],-0.026
same,glycan array binding signal (z-score),Kdn(a2-3)Gal(b1-3)GalNAc,-0.311
same,glycan array binding signal (z-score),Kdn(a2-3)Gal(b1-3)GlcNAc,-0.242
same,glycan array binding signal (z-score),Kdn(a2-3)Gal(b1-4)Glc,-0.136
same,glycan array binding signal (z-score),Kdn(a2-3)Gal(b1-4)GlcNAc,2.76
same,glycan array binding signal (z-score),[25],-0.377
same,glycan array binding signal (z-score),Kdn(a2-6)Gal(b1-4)GlcNAc,0.561
same,glycan array binding signal (z-score),[26],1.06
same,glycan array binding signal (z-score),[27],-0.096
same,glycan array binding signal (z-score),Man(a1-2)Man(a1-3)Man,0.139
same,glycan array binding signal (z-score),[28],0.778

# 2 records drawn at random from the list so far:
binder,measurement,setting,value
B3GalT2 (Rattus norvegicus) (protein) LMLQWRRRHCCFAKMSWNAKRSLFRTHLMGVLSLVFLFAMFLFFNHHDWLPGRPGFKENPVTYTFRGFRSTKTETNQSSLRNIWKEVVPQTLRPQTATNSNNTELSPQGVTGLENTLSANGSIYNEKGTGHPNSYHFKYIINEPEKCQEKSPFLILLIAAEPGQIEARRAIRQTWGNETLAPGIQITRIFLLGISIKLNGYLQHAIQEESIQYHDIIQQEYLDTYYNLTIKTLMGMNWVATYCPHTPYVMKTDSDMFVNTEYLIHKLLKPDLPPRHNYFTGYLMRGYAPNRNKDSKWYMPPDLYPSERYPVFCSGTGYVFSGDLAEKIFKVSLGIRRLHLEDVYVGICLAKLRVDPVPPPNEFVFNHWRVSYSSCKYSHLITSHQFQPSELIKYWNHLQQNKHNACVNAAKEKAGRYRHRKLH,glycan array binding signal (z-score),[12],-0.371
same,glycan array binding signal (z-score),[11],-1.1

# Reference: the supplement of paper PMC8728848
